These are yes or no findings as the source states them, for the method shown. Some entries that bind do so weakly or less than the wild type.
Tests used:
Recombinant FGFR-4 [1] = biological target: T1, Recombinant FGFR-4 (UniProt P22455); experiment: ELISA binding assay, receptor coated
T1 sequence (looked up): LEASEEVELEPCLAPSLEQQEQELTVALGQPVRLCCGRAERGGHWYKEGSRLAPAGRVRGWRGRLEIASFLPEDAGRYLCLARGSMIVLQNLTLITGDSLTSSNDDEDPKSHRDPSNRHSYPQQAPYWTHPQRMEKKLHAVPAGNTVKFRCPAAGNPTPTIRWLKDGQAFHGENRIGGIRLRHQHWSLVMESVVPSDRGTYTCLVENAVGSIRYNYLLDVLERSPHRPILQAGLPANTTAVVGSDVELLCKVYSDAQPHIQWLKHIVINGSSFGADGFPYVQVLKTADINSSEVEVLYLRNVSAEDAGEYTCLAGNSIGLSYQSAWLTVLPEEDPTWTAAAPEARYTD

Amino acid sequences for entries named in this document (tags omitted). A change or cut given only in a name is not applied to a line headed by its entry. Chains listed by the source or under a name are the forms on record and can include a tag or linker.
Recombinant FGFR-1(IIIb) (P11362, form named): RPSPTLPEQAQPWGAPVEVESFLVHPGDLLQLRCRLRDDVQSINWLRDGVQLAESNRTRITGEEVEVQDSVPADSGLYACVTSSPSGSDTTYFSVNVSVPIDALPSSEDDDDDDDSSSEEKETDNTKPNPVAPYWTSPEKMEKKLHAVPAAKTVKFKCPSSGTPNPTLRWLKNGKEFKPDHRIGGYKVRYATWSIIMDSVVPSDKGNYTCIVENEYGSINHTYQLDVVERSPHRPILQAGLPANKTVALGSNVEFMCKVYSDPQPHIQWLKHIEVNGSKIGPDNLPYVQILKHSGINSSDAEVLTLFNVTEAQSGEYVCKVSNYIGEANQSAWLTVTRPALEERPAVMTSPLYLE

Recombinant FGFR-4 [2] = biological target: T1, Recombinant FGFR-4; experiment: summary of the binding experiments
Recombinant FGFR-1(IIIb) [3] = biological target: Recombinant FGFR-1(IIIb) (UniProt P11362); experiment: ELISA binding assay, receptor coated
Recombinant FGFR-1(IIIb) [4] = biological target: Recombinant FGFR-1(IIIb) (UniProt P11362); experiment: summary of the binding experiments

| Binder | binding (Recombinant FGFR-4 [1]) | binding (Recombinant FGFR-4 [2]) | binding (Recombinant FGFR-1(IIIb) [3]) | binding (Recombinant FGFR-1(IIIb) [4]) |
| --- | --- | --- | --- | --- |
| FR1-A1 (antibody, V domains shown) VH: QVQLVQSGAEVKKPGSSVKVSCKASGQTFTGYYMHWVRQAPGQGLEWMGRIIPILGIANYAQKFQGRVTITADKSTSTAYMELSSLRSEDTAVYYCARGGDLGGMDVWGQG VL: EIVLTQSPLSLPVTPGEPASISCRSSQSLRHSNGYNYLDWYLQKPGQSPQLLIYLASNRASGVPDRFSGSGSGTDFTLKISRVEAEDVGVYYCMQALQIPPTFGPGTKVDIKR | binds | binds | – | – |
| FR1-H7 (antibody, V domains shown) VH: EVQLVQSGAEVKKPGASVKVSCKVSGYTFTDYYMHWVQQAPGKGLEWMGLVDPEDGETIYAEKFQGRVTITADTSTDTAYMELSSLRSEDTAVYYCARDDYMDVWGKGTLVTVSS VL: ETTLTQSPDTLSLSPGEGATLSCRASQSVSGSALAWYQQKPGQAPRLLIYDASSRATGVPDRFSGSGSGADFSLTISRLEPEDFAVYSCQQYGSSPLTFGPGTKVDVKR | – | binds | binds | binds |

Reference: US20070274981A1
